Results: patent US20210363257A1
These are yes or no findings as the source states them, for the method shown. Some binding calls cover weakened binding; strength is not graded here.

Chains of the proteins cited; added tags and fusions are not shown. Residues count along the entry.
UniProt Q07011, residues 24-186: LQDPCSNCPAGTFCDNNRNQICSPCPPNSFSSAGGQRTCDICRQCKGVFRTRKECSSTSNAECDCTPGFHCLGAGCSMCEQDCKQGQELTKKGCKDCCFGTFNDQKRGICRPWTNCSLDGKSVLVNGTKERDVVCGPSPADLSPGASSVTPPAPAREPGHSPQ
UniProt P41273, residues 71-254: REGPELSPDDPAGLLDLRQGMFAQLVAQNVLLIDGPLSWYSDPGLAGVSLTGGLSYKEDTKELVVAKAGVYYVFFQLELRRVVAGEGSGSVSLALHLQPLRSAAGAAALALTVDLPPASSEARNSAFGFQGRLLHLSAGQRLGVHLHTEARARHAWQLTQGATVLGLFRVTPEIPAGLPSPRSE

Molecular target: biotinylated huCD137-Fc (human CD137 Fc fusion) (human) (UniProt Q07011)
Experiment: SPR, biotinylated huCD137-Fc captured, 500 nM huCD137L-His applied

Substance: huCD137L-His (human CD137L with a C-terminal His tag) (from UniProt P41273 71-254) (ligand)
- binding: binds
